# Laboratory results reported in article PMC8266045.
# Chains of the proteins cited; added tags and fusions are not shown.
# UniProt P20700: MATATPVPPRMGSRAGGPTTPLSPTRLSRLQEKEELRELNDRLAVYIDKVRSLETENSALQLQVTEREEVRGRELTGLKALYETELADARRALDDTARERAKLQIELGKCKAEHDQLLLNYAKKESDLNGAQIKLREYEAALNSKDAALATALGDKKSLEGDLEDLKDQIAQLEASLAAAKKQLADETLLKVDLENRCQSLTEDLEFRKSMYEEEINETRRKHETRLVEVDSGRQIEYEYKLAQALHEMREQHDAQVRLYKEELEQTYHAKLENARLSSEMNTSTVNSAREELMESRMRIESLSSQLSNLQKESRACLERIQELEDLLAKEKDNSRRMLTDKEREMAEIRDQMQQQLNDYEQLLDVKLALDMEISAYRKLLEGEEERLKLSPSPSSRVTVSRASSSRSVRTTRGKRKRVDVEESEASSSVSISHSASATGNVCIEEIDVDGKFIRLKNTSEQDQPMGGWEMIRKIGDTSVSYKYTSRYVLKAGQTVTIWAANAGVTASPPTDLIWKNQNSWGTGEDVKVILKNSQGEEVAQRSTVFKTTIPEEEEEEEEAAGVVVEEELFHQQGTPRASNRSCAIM
# UniProt Q05397: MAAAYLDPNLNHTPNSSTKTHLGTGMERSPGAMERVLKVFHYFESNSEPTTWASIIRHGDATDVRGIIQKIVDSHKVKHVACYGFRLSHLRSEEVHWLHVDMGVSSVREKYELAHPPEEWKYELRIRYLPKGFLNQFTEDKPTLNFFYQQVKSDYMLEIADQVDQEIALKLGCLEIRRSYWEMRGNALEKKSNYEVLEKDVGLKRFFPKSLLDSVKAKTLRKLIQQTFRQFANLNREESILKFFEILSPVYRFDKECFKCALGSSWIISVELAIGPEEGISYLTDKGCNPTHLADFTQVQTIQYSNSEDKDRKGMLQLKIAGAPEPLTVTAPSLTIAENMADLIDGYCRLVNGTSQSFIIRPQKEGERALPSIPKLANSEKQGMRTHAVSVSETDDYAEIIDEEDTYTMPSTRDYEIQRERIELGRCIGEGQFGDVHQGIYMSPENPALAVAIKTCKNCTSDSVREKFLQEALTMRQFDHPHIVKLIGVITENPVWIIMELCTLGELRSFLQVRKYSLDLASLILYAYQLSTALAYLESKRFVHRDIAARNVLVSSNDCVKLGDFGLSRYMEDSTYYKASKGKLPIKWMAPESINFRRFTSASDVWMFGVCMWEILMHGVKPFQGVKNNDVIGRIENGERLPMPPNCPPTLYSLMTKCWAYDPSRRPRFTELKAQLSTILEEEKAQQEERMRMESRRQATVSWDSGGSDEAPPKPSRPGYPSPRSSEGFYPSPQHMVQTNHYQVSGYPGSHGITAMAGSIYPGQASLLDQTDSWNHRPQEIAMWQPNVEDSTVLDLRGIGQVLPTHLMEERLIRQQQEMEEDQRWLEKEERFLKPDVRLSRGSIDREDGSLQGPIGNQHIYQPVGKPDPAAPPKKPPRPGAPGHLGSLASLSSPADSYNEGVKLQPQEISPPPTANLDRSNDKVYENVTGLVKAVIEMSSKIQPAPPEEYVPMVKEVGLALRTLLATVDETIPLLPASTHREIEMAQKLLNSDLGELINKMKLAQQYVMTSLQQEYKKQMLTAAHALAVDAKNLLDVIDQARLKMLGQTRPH
# These are yes or no findings as the source states them, for the method shown. Binding seen in cells or lysates may run through a third protein. Some binding calls cover weakened binding; strength is not graded here.
# How the values were obtained:
# [1] = target: laminB1 (human (endogenous in MDA-MB-231)) (UniProt P20700); assay: co-IP; MDA-MB-231 lysate in RIPA buffer (50mM Tris HCl pH 8, 150 mM NaCl, 1% NP-40, 0.5% sodium deoxycholate); immunoprecipitated overnight at 4°C with laminB1 antibody; immunoblot with anti FAK and anti laminB1; IgG as negative control
# [2] = target: Focal Adhesion Kinase (human (endogenous in MDA-MB-231)) (UniProt Q05397); assay: co-IP; MDA-MB-231 lysate in RIPA buffer (50mM Tris HCl pH 8, 150 mM NaCl, 1% NP-40, 0.5% sodium deoxycholate); immunoprecipitated overnight at 4°C with FAK antibody; immunoblot with anti FAK and anti laminB1; IgG as negative control
Substance,binding [1],binding [2]
Focal Adhesion Kinase (from UniProt Q05397 1-1052),binds,
laminB1 (from UniProt P20700 1-586),,binds
